Assay results reported in patent publication US20080096244A1, “D-AMINOACYLASE” (DAIICHI PURE CHEMICALS CO., LTD., priority 2002, published 2008).
Some entries share one result that the patent states for a list of compounds.

Legend:
[1] = system: D-aminoacylase from the Defluvibacter sp. A131-3 strain; assay: Effects of inhibitor on D-aminoacylase activity (D-valine produced, HPLC); format: biochemical; details: inhibitor 5 mmol/L; 0.5 mol/L N-acetyl-D-valine, enzyme 500 U, 40° C., 1 day; no addition of inhibitor = 100%; listed as dithiothreitol
Procedure: The detection was conducted at 230 nm. The column was analyzed at a temperature of 30° C. The enzymatic activity was evaluated in terms of the ratio between the area of the acetyl compound and the free compound, and the resolution rate was expressed as a […]

[2] = system: D-aminoacylase from Defluvibacter sp. A131-3 strain; assay: Production of D-valine by resolution of N-acetyl-D,L-valine (HPLC); format: biochemical; details: 15% aqueous N-acetyl-D,L-valine, enzyme 200 U/mL, 40° C., first day
Procedure: It was then confirmed that the strains that had been selected by the chromogenic process show rapid reduction of the N-acetyl-D-valine and increase of the D-valine in an amount corresponding to the reduction of the N-acetyl-D-valine.
By using 15% aqueous solution of N-acetyl-D,L-valine as a substrate, D-aminoacylase from Defluvibacter sp. A131-3 strain was added with in an amount of 200 U per 1 ml of the aqueous solution of the substrate, and the reaction was allowed to proceed at 40° C. for 3 days. The rate of D-valine production by resolution from the N-acetyl-D,L-valine was measured by the HPLC method described in Example 1 (2).

## O[C@H](CS)[C@H](O)CS (racemic) [Dithiothreitol, dithiothreitol]
[1]
  Relative activity (%): less than 50%

## CC(=O)NC(C(=O)O)C(C)C (racemic) [N-acetyl-D,L-valine]
[2]
  Rate of resolution: at least 90%

## CC(=O)N[C@@H](C(=O)O)C(C)C [N-Ac-D-Val, N-acetyl-D-valine]
[2]
  N-acetyl-D-valine in the N-acetyl-D,L-valine converted to D-valine: at least 90%
